PubChem BioAssay AID493246 – Drosophila RNAi Screening Center | 2011
In all, the deposit lists about 21,000 reagents; this is an unselected part of those that have a named target and a result. Of all reagents, 429 (2%) were called active. 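Values are raw and not normalised between plates; calls rest on per-plate z-scores that were not deposited.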 A plus sign joins genes that one reagent is predicted to hit. Reagent sequences are not shown. The record does not give: the amount of reagent, the time to read-out.

Screen: 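Genome-wide search for dsRNAs that reduce cell number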 (primary screen)
Cells: Drosophila Kc and S2R+ cells
Reagents: long dsRNA against Drosophila genes
Read-out: 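Raw, unnormalised count of remaining cells in each well; per-plate z-scores of cell number underlie the calls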
Direction: Kc cell number and S2R+ cell number: higher = more cells remaining
Call rule: 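Counted as a hit if cell number falls by a z-score of at least 3 within its plate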

no.	target	DRSC id	Kc cell number, rep 1	Kc cell number, rep 2	S2R+ cell number, rep 1	S2R+ cell number, rep 2	Outcome
1	Or59c (Odorant receptor 59c)	DRSC04633	1.57e6	1.68e6	1.39e6	1.40e6	inactive
2	pyd (polychaetoid)	DRSC12712	1.47e6	1.46e6	1.07e6	1.21e6	inactive
3	pyd (polychaetoid)	DRSC14387	1.49e6	1.61e6	1.21e6	1.23e6	inactive
4	pyd (polychaetoid)	DRSC14445	1.54e6	1.78e6	1.27e6	1.40e6	inactive
5	pyd (polychaetoid)	DRSC14509	1.65e6	1.83e6	1.30e6	1.41e6	inactive
6	pyd (polychaetoid)	DRSC16547	1.40e6	1.52e6	1.22e6	1.30e6	inactive
7	pyd (polychaetoid)	DRSC16548	1.66e6	1.94e6	1.12e6	1.28e6	inactive
8	pyd (polychaetoid)	DRSC17041	1.58e6	1.96e6	1.27e6	1.39e6	inactive
9	CG10098	DRSC12509	1.61e6	1.62e6	1.33e6	1.45e6	inactive
10	Glut3 (Glucose transporter type 3)	DRSC16681	1.48e6	1.59e6	1.20e6	1.25e6	inactive
11	CG10949	DRSC02112	1.34e6	1.38e6	1.22e6	1.27e6	inactive
12	Ube4A (Ubiquitination factor E4A)	DRSC02004	1.29e6	1.35e6	5.59e5	6.16e5	inactive
13	CG15880	DRSC00474	1.49e6	1.53e6	1.01e6	1.18e6	inactive
14	CG5122	DRSC02816	1.57e6	1.67e6	1.27e6	1.43e6	inactive
15	Ostgamma (Oligosaccharide transferase gamma subunit)	DRSC03074	1.32e6	1.37e6	5.58e5	6.76e5	inactive
16	kin17	DRSC11890	1.63e6	1.67e6	1.11e6	1.29e6	inactive
17	Trf4-2 (Topoisomerase related function 4-2)	DRSC15237	1.47e6	1.58e6	1.02e6	1.04e6	inactive
18	CG34265	DRSC08030	1.59e6	1.44e6	1.01e6	1.18e6	inactive
19	CG32733 (retired record) + CG32797	DRSC17705	1.40e6	1.41e6	9.36e5	1.07e6	inactive
20	CG1724	DRSC20548	1.56e6	1.55e6	1.15e6	1.38e6	inactive
21	mlt (mulet)	DRSC06120	1.37e6	1.40e6	1.14e6	1.19e6	inactive
22	cola + swif	DRSC06826	1.42e6	1.61e6	1.29e6	1.41e6	inactive
23	Lamp1	DRSC03727	1.50e6	1.53e6	1.18e6	2.34e5	inactive
24	syd (sunday driver)	DRSC10963	1.42e6	1.45e6	1.31e6	1.29e6	inactive
